Some of the results follow. These are further read-outs of the screen, such as a control signal, another cell line or another target. No call is given for them. Compounds called inactive in the main read-out are mostly missing here. Potencies come from curve fits of mixed quality, noted in brackets.
Experiment: qHTS Assay for Lipid Storage Modulators in Drosophila S3 Cells;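 for cell number change: cells counted by Cell Tracker Red CMTPX staining in the red channel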
Details: BODIPY lipid droplet fluorescence, 18-24 h; for cell number change: measured here: cell count max response, cells fed with added oleic acid
Method in brief: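 Drosophila S3 cells got compounds at several concentrations plus oleic acid (400 uM solution). Laser-scanning cytometry with 488 nm excitation read lipid droplets at 500-530 nm and cells at 575-640 nm. Percent activity was relative to 20 uM Triacsin C.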

[1] = measured here: lipid fluorescence (Fed channel) AC50, cells fed with added oleic acid
[2] = measured here: cell number channel AC50, cells fed with added oleic acid

With `CCN(CC)c1ccc(/C=C(\C#N)C(=O)NCc2ccco2)cc1` the cell number change was -11.5% and the AC50 [1] was 29.1 µM [falling, single point].
In the case of `CCN(CC)c1ccc(C(=O)OCC(=O)Nc2cc(C)on2)cc1`, the cell number change is reported as 18.2%, the AC50 [2] is reported as 0.58 µM [rising, full curve, poor fit] and the AC50 [1] is reported as 1.46 µM [rising, full curve].
In the case of `CCCC(=O)Nc1cc(Cl)ccc1N1CCN(C(=O)CC)CC1`, the cell number change is reported as 13.3% and the AC50 [1] is reported as 16.4 µM [rising, single point].
For `COc1cc(C2c3c([nH]c(=O)[nH]c3=O)Nc3ccc4ccccc4c32)ccc1O` (centres undefined), the cell number change was 5.83% and the AC50 [1] was 0.092 µM [rising, full curve, poor fit].
Molecule `Cc1ccc(-n2nc(C)c(NC(=O)CCl)c2C)cc1` has a cell number change of -20.2%.
For `O=C(NCc1ccccc1)C(c1ccc(F)cc1)N(C(=O)c1csnn1)c1ccccc1` (centres undefined), the cell number change was 16%.
In the case of `COc1cccc(N(CC(=O)NC2CCCC2)C(=O)CCCC(=O)Nc2ccccn2)c1`, the cell number change is reported as 7.92% and the AC50 [1] is reported as 0.58 µM [rising, partial curve].
For `S=C(NCCc1ccccc1)Nc1cnc2ccccc2c1`, the cell number change was 23.6% and the AC50 [1] was 2.91 µM [falling, single point].
With `COCC(C)n1c(SCC(=O)N2CCc3ccccc3C2)nc2ccccc2c1=O` (centres undefined) the cell number change was -3.91%.
In the case of `CSCCC(NS(=O)(=O)c1ccccc1F)C(=O)NC(C)c1ccccc1` (centres undefined), the cell number change is reported as -5.41% and the AC50 [2] is reported as 0.0517 µM [falling, partial curve, poor fit].
In the case of `COC(=O)c1oc2c(c1C)C1(CCC2)SCCS1`, the cell number change is reported as -16.1% and the AC50 [1] is reported as 29.1 µM [falling, single point].
With `CC(OC(=O)c1ccccc1CCc1ccccc1)C(N)=O` (centres undefined) the cell number change was 30.6%, the AC50 [2] was 0.731 µM [rising, full curve, poor fit] and the AC50 [1] was 29.1 µM [rising, single point].
Molecule `COc1ccc(NC(=S)NC(=O)CC(C)C)c(OC)c1` has a cell number change of 13.7%.
With `CCc1ccc(OCc2n[nH]c(=S)n2C(C)CCCC(C)C)cc1` (centres undefined) the cell number change was -33.5% and the AC50 [2] was 0.92 µM [falling, full curve, poor fit].
In the case of `CC1(C)Cc2nc3sc4c(N(CCO)CCO)nnnc4c3cc2CO1`, the cell number change is reported as 3.56% and the AC50 [1] is reported as 20.6 µM [falling, partial curve].
In the case of `S=C(NCCc1ccc(Cl)cc1)Nc1ccc(Cl)cc1Cl`, the cell number change is reported as -36%, the AC50 [2] is reported as 16.4 µM [falling, single point] and the AC50 [1] is reported as 20.6 µM [falling, partial curve].
In the case of `CC(C)(C)SCCNC(=O)CN1C(=O)c2ccccc2S1(=O)=O`, the cell number change is reported as -17.8% and the AC50 [1] is reported as 9.2 µM [falling, partial curve].
In the case of `O=C1N(Cc2cccc(Cl)c2)C[C@@H]2C[C@@H](c3c[nH]c4ccccc34)N3CCC[C@@]123`, the cell number change is reported as 10.4% and the AC50 [1] is reported as 29.1 µM [falling, single point].
`COc1cc(/C=N/NC(=O)c2nnn(-c3nonc3N)c2-c2cccs2)ccc1O` gave a cell number change of -14.4%.
In the case of `N#Cc1c(NC(=O)c2ccco2)sc2c1CCC2`, the cell number change is reported as 19.5%.
With `CCS(=O)(=O)N1CCC(C(=O)NC2CCCCC2)CC1` the cell number change was -27.2%, the AC50 [2] was 0.651 µM [falling, full curve, poor fit] and the AC50 [1] was 4.11 µM [falling, full curve].
With `Cc1onc(-c2ccccc2)c1C(=O)NC(C)c1ccc2c(c1)OCO2` (centres undefined) the cell number change was -20.2% and the AC50 [1] was 23.1 µM [falling, single point].
With `Cc1ccc(-c2ccc(CCC(=O)O)n2NC(=O)c2ccco2)cc1` the cell number change was -36.7%, the AC50 [2] was 0.291 µM [falling, full curve] and the AC50 [1] was 0.291 µM [falling, full curve, poor fit].
In the case of `CCN(CC)CCN(C(=O)c1ccc(S(=O)(=O)N(C)C2CCCCC2)cc1)c1nc2ccc(OC)cc2s1`, the cell number change is reported as 5.49%.
With `Fc1ccccc1-c1nc2nc3ccccc3nc2n1CC1CCCO1` (centres undefined) the cell number change was 18.2% and the AC50 [1] was 20.6 µM [rising, single point].
With `N#C/C(=C\c1ccc(-c2cccc([N+](=O)[O-])c2)o1)C(=O)N1CCOCC1` the cell number change was 5.94% and the AC50 [1] was 0.82 µM [rising, single point].
For `O=C(c1ccc(F)cc1)N(C(=O)c1ccc(F)cc1)c1ncccn1`, the cell number change was 8.21% and the AC50 [1] was 0.58 µM [falling, full curve].
For `CC(=O)c1ccc(N2CCN(CCC#N)CC2)c(F)c1`, the AC50 [1] was 0.731 µM [falling, single point].
`COc1ccccc1Nc1ncnc2ccccc12` showed a cell number change of 1.47%.
For `CCOc1ccc(S(=O)(=O)N2CCCCC2)cc1NS(=O)(=O)c1cccs1`, the cell number change was -91.2%, the AC50 [2] was 8.2 µM [falling, partial curve] and the AC50 [1] was 20.6 µM [falling, partial curve].
With `Cc1cc(-n2c(SCC(=O)NCCC3=CCCCC3)nc3n[nH]c(C)c3c2=N)ccc1Cl` the cell number change was -30.6%, the AC50 [2] was 13 µM [falling, partial curve] and the AC50 [1] was 18.4 µM [falling, single point].
For `O=C(NCC(c1ccco1)N1CCN(c2ccc(F)cc2)CC1)c1ccco1` (centres undefined), the AC50 [1] was 4.11 µM [rising, single point].
With `CCn1ncc(C2=NOC(C(=O)Nc3c(C)nn(Cc4ccc(F)cc4)c3C)C2)c1C` (centres undefined) the cell number change was 1.16% and the AC50 [1] was 0.517 µM [rising, full curve, poor fit].
For `CCCCOc1ccc(CSc2nc(C)[nH]c2[N+](=O)[O-])cc1[N+](=O)[O-]`, the AC50 [2] was 5.8 µM [rising, single point] and the AC50 [1] was 4.61 µM [rising, partial curve].
With `Cn1c(C=O)c(C#Cc2ccccc2)c2ccccc21` the cell number change was -27.3% and the AC50 [1] was 4.61 µM [falling, single point].
With `CC(=O)Nc1ccc(OC(=O)c2ccc(Br)c([N+](=O)[O-])c2)cc1` the cell number change was -1.1% and the AC50 [1] was 0.411 µM [falling, partial curve].
For `CCCC[C@]12Cc3c(ccc4ccccc34)C(O1)C1=C(O2)C(=O)c2ccccc2C1=O`, the cell number change was 22.1% and the AC50 [2] was 0.133 µM [rising, full curve, poor fit].
In the case of `COc1cc2c(cc1OC)CN(C(=O)Cn1ccccc1=O)CC2`, the cell number change is reported as 10% and the AC50 [1] is reported as 29.1 µM [falling, single point].
With `CCOC(=O)C1=C(O)CSC1=Nc1ccc(Cl)cc1` the cell number change was -6.09%.
For `O=C(Nc1cccc2ccccc12)c1ccc([N+](=O)[O-])cc1`, the AC50 [1] was 29.1 µM [falling, single point].
With `O=c1c2c3c(sc2nc(N2CCNCC2)n1CCc1ccccc1)CCCCC3` the AC50 [1] was 0.00517 µM [rising, full curve, poor fit].
Work on `Cc1cccc(N(C(=O)c2sc(C)nc2C)C(C(=O)NCC2CCCO2)c2ccccc2)c1` (centres undefined) yielded a cell number change of 7.5%.
With `CSc1c(C#N)c(N)nc2sc(C(=O)c3ccc(Cl)c(Cl)c3)c(N)c12` the cell number change was 13.5% and the AC50 [2] was 2.91 µM [rising, single point].
In the case of `O=C(CN(C(=O)CCC(=O)Nc1nccs1)c1cccc(F)c1)NCC1CCCO1` (centres undefined), the cell number change is reported as 10.1% and the AC50 [1] is reported as 0.82 µM [rising, full curve].
In the case of `CCN(CC)CCCn1c2c(c(SCC(=O)Nc3ccc4c(c3)OCO4)nc1=O)CCC2`, the cell number change is reported as 175% and the AC50 [2] is reported as 25.9 µM [rising, partial curve, poor fit].
For `CN(C)c1ccc(/C=N/NC(=O)CCc2c[nH]c3ccccc23)cc1`, the cell number change was 3.26% and the AC50 [1] was 3.26 µM [falling, partial curve].
Work on `Cc1nc(-c2ccccc2)cc(N2CCCC2)n1` yielded a cell number change of 0.676%.
With `COC(=O)c1[nH]nc(C(=O)OC(C)(C)C)c1-c1ccccc1` the cell number change was -59.4% and the AC50 [2] was 29.1 µM [falling, single point].
In the case of `O=C(COc1ccccc1)N(Cc1ccco1)C1CCS(=O)(=O)C1` (centres undefined), the cell number change is reported as 39.5% and the AC50 [2] is reported as 29.1 µM [rising, single point].
With `CCOC(=O)N1CCN(C(=O)Cn2ncn3nc(-c4cccs4)cc3c2=O)CC1` the cell number change was 8.12% and the AC50 [1] was 32.6 µM [rising, single point].
For `COc1ccc(COC(=O)N/N=C/c2cccs2)cc1`, the cell number change was -9.94% and the AC50 [1] was 0.146 µM [rising, full curve].
With `O=S(=O)(Nc1cccc(S(=O)(=O)N2CCOCC2)c1)c1ccc2c(c1)OCCO2` the AC50 [2] was 6.51 µM [falling, single point] and the AC50 [1] was 6.51 µM [falling, single point].
In the case of `CCN(CC(=O)Nc1ccc(OC)cc1)C(=O)Cc1ccsc1`, the cell number change is reported as -17.6% and the AC50 [1] is reported as 14.6 µM [rising, partial curve, poor fit].
With `Fc1ccc(C(Nc2ccccn2)c2c[nH]c3ccccc23)cc1` (centres undefined) the cell number change was -29.3% and the AC50 [1] was 1.3 µM [falling, full curve, poor fit].
With `COc1ccc(-c2cc3nc(C)cc(C)n3n2)cc1` the AC50 [2] was 6.51 µM [rising, single point] and the AC50 [1] was 7.31 µM [falling, single point].
With `COc1ccc(C2=NOC(Cn3nc(C(=O)NCc4ccc(OC(F)(F)F)cc4)cc3-c3ccccc3)C2)cc1` (centres undefined) the cell number change was -31.4% and the AC50 [2] was 9.2 µM [falling, partial curve].
Work on `Cc1ccc(C(=O)O)cc1-c1ccc(/C=C2/NC(=O)N(c3ccccc3)C2=O)o1` yielded a cell number change of 35.6%.
`Cc1ccc(Cl)cc1N1CCN(CC(O)COC(C)C)CC1` (centres undefined) gave a cell number change of 0.594%.
For `COc1cc(OC)cc(-c2nnc(SCc3cccc(C(=O)O)c3)o2)c1`, the cell number change was 70.9%, the AC50 [2] was 29.1 µM [rising, single point] and the AC50 [1] was 0.58 µM [rising, single point].
In the case of `COc1ccc(C(=O)NCCc2nnc(SCC(=O)Nc3ccccc3C(C)C)n2C)cc1`, the cell number change is reported as 51.6% and the AC50 [2] is reported as 20.6 µM [rising, single point].
For `Cc1nn(CC(=O)Nc2ccc3c(c2)CCC3)c(C)c1[N+](=O)[O-]`, the cell number change was -16.2% and the AC50 [1] was 0.517 µM [rising, full curve, poor fit].
With `Cn1c(CNC(=O)CNS(=O)(=O)c2ccccc2)cc(=O)n(C)c1=O` the AC50 [1] was 20.6 µM [rising, single point].

— PubChem BioAssay AID2685 (National Center for Advancing Translational Sciences (NCATS), 2010)
